Percent effect of library compounds

The chains behind the UniProt entries cited, without tags or fusion partners. Residues count along the entry.
UniProt Q8IDJ8, 1-583: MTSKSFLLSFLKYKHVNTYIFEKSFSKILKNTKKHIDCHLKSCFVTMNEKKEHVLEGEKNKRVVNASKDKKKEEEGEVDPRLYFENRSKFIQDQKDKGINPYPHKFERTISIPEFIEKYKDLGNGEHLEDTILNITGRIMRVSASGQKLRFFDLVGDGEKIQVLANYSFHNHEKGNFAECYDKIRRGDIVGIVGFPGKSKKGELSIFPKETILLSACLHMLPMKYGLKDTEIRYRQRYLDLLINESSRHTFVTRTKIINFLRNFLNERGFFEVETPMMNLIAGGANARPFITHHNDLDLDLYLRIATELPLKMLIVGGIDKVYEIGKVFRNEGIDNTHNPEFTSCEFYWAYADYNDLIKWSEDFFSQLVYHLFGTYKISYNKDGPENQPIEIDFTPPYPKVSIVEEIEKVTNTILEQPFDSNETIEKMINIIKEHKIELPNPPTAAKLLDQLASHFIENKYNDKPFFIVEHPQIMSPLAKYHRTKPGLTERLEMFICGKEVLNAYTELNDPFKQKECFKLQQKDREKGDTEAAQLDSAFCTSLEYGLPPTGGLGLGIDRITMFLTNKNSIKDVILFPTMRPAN

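Enzyme assay of the cytosolic lysyl-tRNA synthetase in 384-well plates, read by luminescence. Target: Lysine-tRNA ligase, Plasmodium falciparum 3D7 (UniProt Q8IDJ8). Compounds at 30 µM. Higher reads as stronger inhibition, judged from the few compounds that gave an IC50. Of about 69,000 compounds tested this way, about 49 (0.071%) reached 50% or more in at least one test.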

Results are given as percent effect.
The controls that fix the scale are not given in the record; negative values are as filed.
This is an unselected part of the compounds tested.

{"compound": "CCCS(=O)(=O)N1CCOCC2(CCN(c3ccccn3)C2)C1", "stereo": "centres undefined", "percent effect": 4.093}
{"compound": "CC(NC(=O)CCNC(=O)c1ccoc1)c1ccccc1", "stereo": "centres undefined", "percent effect": 0.606}
{"compound": "CC(NCc1cccn1C)c1noc(-c2ccc(Cl)cc2)n1", "stereo": "centres undefined", "percent effect": 1.38}
{"compound": "OC1CCCN(Cc2ccnc(-c3cccnc3)n2)C1", "stereo": "centres undefined", "percent effect": 0.677}
{"compound": "O=C(CCCN1CCCCC1)N[C@H](C(=O)O)c1cccc(F)c1F", "percent effect": 4.45}
{"compound": "CC(C)c1nnc(NC(=O)N(C)Cc2ccc(C(N)=O)cc2)s1", "percent effect": -1.033}
{"compound": "CN(Cc1csc(-c2cccs2)n1)Cc1ncccc1C(=O)O", "percent effect": 6.394}
{"compound": "COC(C)C(=O)NS(=O)(=O)c1ccc(F)c(C(F)(F)F)c1", "stereo": "centres undefined", "percent effect": 2.476}
{"compound": "CC(C(=O)Nc1ccc(Cl)cn1)n1ccc(C(F)(F)F)n1", "stereo": "centres undefined", "percent effect": 3.777}
{"compound": "COc1c(NC(=O)N(C)CCOc2ccc(F)cc2)c(C)nn1C", "percent effect": 1.549}
{"compound": "CCCn1cc(S(=O)(=O)N[C@H]2CN(C(C)=O)C[C@@H]2C2CC2)cn1", "percent effect": 4.843}
{"compound": "COc1ccc2[nH]nc(CN3CCC(C(C)N4CCCC4)CC3)c2c1", "stereo": "centres undefined", "percent effect": 0.8949}
{"compound": "N#Cc1cccnc1N1CCC(C2CCCCCN2C(=O)C2CC2)CC1", "stereo": "centres undefined", "percent effect": 1.895}
{"compound": "COCCCNC(=O)c1c(C)noc1C(C)C", "percent effect": 0.1107}
{"compound": "Cn1ccc(C(=O)NCc2ccc(N3CCCCC3)nc2)cc1=O", "percent effect": -0.4762}
{"compound": "CN1CCC2(CCN(C(=O)c3ccccc3)CC2)C1", "percent effect": 1.147}
{"compound": "Cc1ccc(C2CCCN2Cc2nc(-c3ccco3)no2)cc1", "stereo": "centres undefined", "percent effect": 5.237}
{"compound": "CCc1c(O)n(C(C)CC)c(SCC(=O)c2ccccc2)nc1=O", "stereo": "centres undefined", "percent effect": 5.748}
{"compound": "c1ncn(Cc2cnc3n2CCN(Cc2ccsc2)CC3)n1", "percent effect": -6.59}
{"compound": "Cc1noc(C)c1CC(=O)N1CCN(Cc2cscn2)CC1", "percent effect": 0.379}
{"compound": "COc1cnc(N2C[C@H](CO)C[C@H](CN3CCOCC3)C2)nc1", "percent effect": 1.517}
{"compound": "Cn1ccc(C(=O)N2CCC(Cc3cnc4[nH]ccc4c3)CC2)n1", "percent effect": 1.975}
{"compound": "O=C1OCCN1CCCN1CCCC1c1ccc(O)cc1", "stereo": "centres undefined", "percent effect": 3.449}
{"compound": "COCC(=O)NCC1CCN(Cc2ccsc2)CC1", "percent effect": 2.221}
{"compound": "Cc1cc(C)cc(OCC(=O)N2CCC2)c1", "percent effect": 7.331}
{"compound": "Cc1nc(C2CCCN2Cc2ncc(C(C)C)o2)no1", "stereo": "centres undefined", "percent effect": -8.913}
{"compound": "O=C(CCc1ccncc1)NCc1csc(Br)c1", "percent effect": 3.39}
{"compound": "CN1C(=O)COc2ccc(C(=O)Cn3cnc4ccsc4c3=O)cc21", "percent effect": 1.879}
{"compound": "OCCOc1ccc(NCc2cccc3cccnc23)cn1", "percent effect": 1.553}

Repeated from the top, 3 entries:

{"compound": "CCCS(=O)(=O)N1CCOCC2(CCN(c3ccccn3)C2)C1", "stereo": "centres undefined", "percent effect": 4.093}
{"compound": "CC(NC(=O)CCNC(=O)c1ccoc1)c1ccccc1", "stereo": "centres undefined", "percent effect": 0.606}
{"compound": "CC(NCc1cccn1C)c1noc(-c2ccc(Cl)cc2)n1", "stereo": "centres undefined", "percent effect": 1.38}

The values are deposited in ChEMBL (CHEMBL3988442, “University of Dundee, Small-Polar-MMV Screening Library” (2021)).